Test results from article PMC11289102.
These are yes or no findings as the source states them, for the method shown. Binding seen in cells or lysates may run through a third protein. These calls come from enrichment with a bait or labelling near it, and not all partners need be listed.

Biological target: T1, multimerin 1 (MMRN1), bait of the IP-MS (UniProt Q13201)
T1 sequence: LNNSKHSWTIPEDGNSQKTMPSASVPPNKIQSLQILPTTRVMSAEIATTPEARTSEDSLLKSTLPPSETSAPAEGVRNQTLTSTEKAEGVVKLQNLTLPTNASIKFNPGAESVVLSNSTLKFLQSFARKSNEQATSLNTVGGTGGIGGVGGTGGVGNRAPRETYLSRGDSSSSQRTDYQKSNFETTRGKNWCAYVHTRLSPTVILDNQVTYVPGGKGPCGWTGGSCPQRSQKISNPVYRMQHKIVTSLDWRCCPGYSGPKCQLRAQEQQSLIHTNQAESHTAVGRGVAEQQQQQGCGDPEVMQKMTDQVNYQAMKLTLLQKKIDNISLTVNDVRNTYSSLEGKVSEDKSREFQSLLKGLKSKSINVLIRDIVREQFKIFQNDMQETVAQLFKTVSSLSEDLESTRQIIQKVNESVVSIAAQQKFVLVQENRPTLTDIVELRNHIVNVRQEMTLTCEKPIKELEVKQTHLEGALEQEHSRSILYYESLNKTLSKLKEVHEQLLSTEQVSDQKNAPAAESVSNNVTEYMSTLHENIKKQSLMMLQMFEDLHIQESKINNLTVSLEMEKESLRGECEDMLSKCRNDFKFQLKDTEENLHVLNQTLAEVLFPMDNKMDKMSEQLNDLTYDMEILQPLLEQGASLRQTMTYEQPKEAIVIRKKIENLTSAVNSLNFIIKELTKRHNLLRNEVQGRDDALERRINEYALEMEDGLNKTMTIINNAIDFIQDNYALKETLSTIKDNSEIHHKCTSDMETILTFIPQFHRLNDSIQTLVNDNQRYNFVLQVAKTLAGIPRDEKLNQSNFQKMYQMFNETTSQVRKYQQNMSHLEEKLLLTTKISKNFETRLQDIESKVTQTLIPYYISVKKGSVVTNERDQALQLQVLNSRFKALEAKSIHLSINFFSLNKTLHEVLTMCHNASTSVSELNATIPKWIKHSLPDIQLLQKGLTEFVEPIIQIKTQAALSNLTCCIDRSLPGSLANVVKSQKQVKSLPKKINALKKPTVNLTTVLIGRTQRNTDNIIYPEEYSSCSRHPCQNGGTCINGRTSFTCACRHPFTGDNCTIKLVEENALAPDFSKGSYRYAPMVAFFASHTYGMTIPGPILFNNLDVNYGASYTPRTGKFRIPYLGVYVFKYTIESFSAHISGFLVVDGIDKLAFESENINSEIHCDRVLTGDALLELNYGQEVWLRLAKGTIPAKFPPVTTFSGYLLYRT
Assay: affinity purification with mass spectrometry; membrane protein extract of HEK293T; antibody with lysate supernatant 12 h at 4 °C; protein A/G magnetic beads; SDS-PAGE, LC-MS (Q Exactive)

binding: binds
B1: hyaluronan mediated motility receptor (HMMR), found by IP-MS (protein, UniProt O75330 1-724)
chain: MSFPKAPLKRFNDPSGCAPSPGAYDVKTLEVLKGPVSFQKSQRFKQQKESKQNLNVDKDTTLPASARKVKSSESKESQKNDKDLKILEKEIRVLLQERGAQDRRIQDLETELEKMEARLNAALREKTSLSANNATLEKQLIELTRTNELLKSKFSENGNQKNLRILSLELMKLRNKRETKMRGMMAKQEGMEMKLQVTQRSLEESQGKIAQLEGKLVSIEKEKIDEKSETEKLLEYIEEISCASDQVEKYKLDIAQLEENLKEKNDEILSLKQSLEENIVILSKQVEDLNVKCQLLEKEKEDHVNRNREHNENLNAEMQNLKQKFILEQQEREKLQQKELQIDSLLQQEKELSSSLHQKLCSFQEEMVKEKNLFEEELKQTLDELDKLQQKEEQAERLVKQLEEEAKSRAEELKLLEEKLKGKEAELEKSSAAHTQATLLLQEKYDSMVQSLEDVTAQFESYKALTASEIEDLKLENSSLQEKAAKAGKNAEDVQHQILATESSNQEYVRMLLDLQTKSALKETEIKEITVSFLQKITDLQNQLKQQEEDFRKQLEDEEGRKAEKENTTAELTEEINKWRLLYEELYNKTKPFQLQLDAFEVEKQALLNEHGAAQEQLNKIRDSYAKLLGHQNLKQKIKHVVKLKDENSQLKSEVSKLRCQLAKKKQSETKLQEELNKVLGIKHFDPSKAFHHESKENFALKTPLKEGNTNCYRAPMECQESWK
